Source: PubChem BioAssay AID1259308 (NCATS, 2017)

Screen: 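Candidate targets for better recombinant protein yield in mammalian cells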 (primary screen)
Cells: human HEK293 embryonic kidney cells stably expressing firefly luciferase (HEK-CMV-Luc2-Hygro)
Knock-down reagent: single siRNA against human genes, 0.8 pmol siRNA per well
Duration: 72 h
Read-out: 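Reporter luminescence and viable-cell signal on separate replicate plates, given as percent of non-targeting control and median/MAD z-scores, plus per-cell luciferase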
Scale: total luciferase, z-score and total luciferase, % of control: higher = more reporter protein produced; luciferase per cell, z-score: higher = more reporter output per viable cell; viable cells, % of control: higher = more viable cells
Rule for the call: 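Active when the median/MAD z-score for overall luciferase is greater than 3; a gene was taken forward for validation with new siRNAs if at least two of its three siRNAs passed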
Meaning of the calls: active = raised luciferase; inactive = no rise
Here is one part, drawn at random, of about 59,000 reagents tested. About 1,510 of them (2.6%) were called active. 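Calls use total luciferase alone and ignore viability, so some active siRNAs may act by altering cell number.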 The numbers tell different reagents against one gene apart.

Target gene	reagent no.	total luciferase, z-score	total luciferase, % of control	luciferase per cell, z-score	viable cells, % of control	outcome
GOT1L1	1	-0.436	73.2	0.241	76.8	inactive
GOT1L1	2	1.42	110	1.03	93.7	inactive
GOT1L1	3	-1.33	55.5	-0.72	75	inactive
PRORSD1P	1	0.0681	83.2	0.096	90.7	inactive
PRORSD1P	2	-0.448	73	0.36	74.2	inactive
PRORSD1P	3	0.0788	83.5	-0.0608	94.8	inactive
MLN	1	-0.682	68.3	-1.15	103	inactive
MLN	2	-0.133	79.2	0.0732	86.9	inactive
MLN	3	-0.00694	81.7	0.228	86	inactive
TPRG1	1	0.274	87.3	0.615	83	inactive
TPRG1	2	-0.5	71.9	-0.89	102	inactive
TPRG1	3	-1.79	46.3	-2.02	88.1	inactive
SLED1	1	-1.62	49.6	-1.98	93.3	inactive
SLED1	2	-0.329	75.4	-0.553	97.4	inactive
SLED1	3	0.445	90.7	0.645	85.6	inactive
TM4SF1	1	1.17	105	0.0845	115	inactive
TM4SF1	2	0.0023	81.9	-0.25	97.8	inactive
TM4SF1	3	-0.585	70.2	-1.28	110	inactive
CCL2	1	0.143	84.7	-0.288	102	inactive
CCL2	2	1.39	110	1.44	83.8	inactive
CCL2	3	0.0359	82.6	-0.105	94.9	inactive
SOWAHD	1	1.01	102	1.06	86.1	inactive
SOWAHD	2	-0.69	68.2	-0.498	86.8	inactive
SOWAHD	3	1.11	104	1.02	88.8	inactive

Quoted from above, 8 entries:
Target gene	reagent no.	total luciferase, z-score	total luciferase, % of control	luciferase per cell, z-score	viable cells, % of control	outcome
MLN	1	-0.682	68.3	-1.15	103	inactive
MLN	2	-0.133	79.2	0.0732	86.9	inactive
MLN	3	-0.00694	81.7	0.228	86	inactive
TPRG1	1	0.274	87.3	0.615	83	inactive
TPRG1	2	-0.5	71.9	-0.89	102	inactive
TPRG1	3	-1.79	46.3	-2.02	88.1	inactive
SLED1	1	-1.62	49.6	-1.98	93.3	inactive
SLED1	2	-0.329	75.4	-0.553	97.4	inactive

Further results:
Target gene	reagent no.	total luciferase, z-score	total luciferase, % of control	luciferase per cell, z-score	viable cells, % of control	outcome
LRAT	1	-0.0619	80.7	0.139	86.9	inactive
LRAT	2	-1.13	59.4	-1.44	96.9	inactive
LRAT	3	-0.374	74.4	-0.437	93.3	inactive
ZNF750	1	-0.358	74.8	0.377	75.7	inactive
ZNF750	2	-1.41	53.8	-0.537	69.2	inactive
ZNF750	3	-0.759	66.8	0.108	72.5	inactive
PPARA	1	1.84	118	0.865	105	inactive
PPARA	2	1.69	115	0.814	104	inactive
PPARA	3	0.0857	83.6	-0.619	110	inactive
ETV2	1	1.59	114	0.737	105	inactive
ETV2	2	-1.8	46	-1	67	inactive
ETV2	3	3.98	161	2.38	96.2	active
PGLYRP4	1	0.12	84.3	0.147	90.6	inactive
PGLYRP4	2	1.31	108	0.763	98.7	inactive
PGLYRP4	3	0.44	90.6	0.115	98.3	inactive
RPL17P39	1	-3.13	19.7	-2.41	41.5	inactive
RPL17P39	2	2.91	140	2.28	85.6	inactive
RPL17P39	3	-0.57	70.6	-0.635	93.2	inactive
SLC25A17	1	-1.02	61.7	-0.968	88.9	inactive
SLC25A17	2	-0.819	65.6	-1.46	108	inactive
SLC25A17	3	1.22	106	1.44	81.1	inactive
SERINC1	1	2.48	131	1.6	96.1	inactive
SERINC1	2	-0.93	63.4	0.13	68.4	inactive
SERINC1	3	-0.124	79.4	-0.473	101	inactive
INSL3	1	1.03	102	0.746	94	inactive
INSL3	2	1.44	111	1.01	94.8	inactive
INSL3	3	0.687	95.6	1.29	76.1	inactive
DPM2	1	0.193	85.7	-0.0127	96.1	inactive
DPM2	2	-0.725	67.5	-0.739	91.6	inactive
DPM2	3	0.793	97.7	0.851	87.2	inactive
SELENOM	1	-0.987	62.3	0.133	67.2	inactive
SELENOM	2	-0.591	70.1	-0.911	99.6	inactive
SELENOM	3	-0.0683	80.5	0.028	89.3	inactive
